28 molecules from the supplement of paper PMC10735217 can be followed below.

The assay deals with HEK293A TEAD-LUC reporter. Briefly: TEAD-luciferase reporter activity (YAP activation), robust Z score vs plate; higher = stronger YAP/TEAD activation. The conditions noted are these: 24 h.

Several values for one entry are separate records, joined by “and”; a condition that tells them apart may be missing. Equal values may be shown once. Where a name gives a salt, the structure may show the parent alone. The list shows a part of the results. This data set is noisy: repeats of one test often differ as much as different tests do.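 The human kidney-derived cells carry a stably integrated construct of eight TEAD-binding elements driving luciferase, read by luminescence in a drug-repurposing library screen. A compound counts as a hit when its signal is more than five robust Z scores above the plate mean.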

With `COc1cc2c(cc1C(=O)N1CCC(Cc3ccc(F)cc3)CC1)c(C(=O)C(=O)N(C)C)cn2C`, the TEAD-luciferase reporter activity was inactive: 0.93 (compound concentration: 200 nM), inactive: -2.68 (compound concentration: 2 uM) and inactive: -0.938 (compound concentration: 10 uM).
`CNc1ncc2cc(-c3cc(NC(=O)NCCC(C)(C)C)c(F)cc3C)c(C)nc2n1`: the TEAD-luciferase reporter activity by setting is: (compound concentration: 200 nM) inactive: -1.12; (compound concentration: 2 uM) inactive: -2.33; (compound concentration: 10 uM) inactive: 0.419.
For `CC(=O)N1CCCN(c2nc3ncccc3o2)CC1`, the TEAD-luciferase reporter activity is inactive: -1.43 (compound concentration: 200 nM) and inactive: 2.44 (compound concentration: 10 uM).
As to `CC(C)(C)NCC(O)COc1ccccc1C(=O)CCc1ccccc1` (stereo unspecified), the TEAD-luciferase reporter activity runs as follows: (compound concentration: 200 nM) inactive: -0.666; (compound concentration: 2 uM) inactive: 0.549; (compound concentration: 10 uM) inactive: 2.23.
Regarding `CCS(=O)(=O)c1cccc(-c2cc(C(=O)NC3CCN(C)CC3)c(C)c3[nH]c4ncc(C)cc4c23)c1`, the TEAD-luciferase reporter activity reads like this: (compound concentration: 200 nM) inactive: -0.0816; (compound concentration: 2 uM) inactive: -1.8; (compound concentration: 10 uM) inactive: -0.618.
Taken in the same sequence, the figures for `Cc1ccc(O)c(C(=O)N[C@H]2CC[C@@H](NC(=O)c3cc(F)cnc3Oc3ccc(F)c(F)c3)CC2)c1` were inactive: -1.4, inactive: -0.69 and active: 9.51.
Taken in the same sequence, the figures for `Cc1ccc(Nc2nccs2)c(O)c1` [icodulinium hydrochloride] were inactive: 0.155, inactive: -0.103 and inactive: -0.238.
`CC1(CN2CCC(n3c(O)nc4ccccc43)CC2)OCc2ccccc2-n2cccc21` (stereo unspecified): the TEAD-luciferase reporter activity is inactive: -0.702 (compound concentration: 200 nM) and inactive: 1.53 (compound concentration: 10 uM).
Take `COc1ccc(CCNCC(O)COc2cc(C)ccc2Cl)cc1OC` (stereo unspecified): the TEAD-luciferase reporter activity reads like this: (compound concentration: 200 nM) inactive: -1.43; (compound concentration: 2 uM) inactive: -0.94; (compound concentration: 10 uM) inactive: -0.747.
Taken in the same sequence, the figures for `Cc1ncc(COP(=O)(O)O)c(C=O)c1O` [Pyridoxal phosphate] were inactive: -1.98, inactive: -1.48 and inactive: 0.612.
In the same order, the values of `c1ccc(Oc2nncc3ccccc23)cc1` are inactive: -0.163, inactive: 1.82 and inactive: 3.59.
As to `CCOC(=O)[C@@H]1O[C@H]1C(=O)N[C@@H](CC(C)C)C(=O)N1CCN(Cc2ccc(OC)c(OC)c2OC)CC1`, the TEAD-luciferase reporter activity reads like this: (compound concentration: 200 nM) inactive: -2.17; (compound concentration: 2 uM) inactive: 0.426; (compound concentration: 10 uM) inactive: -0.996.
Regarding `O=C1NCC2(CCN(CCc3ccccc3)CC2)O1` [decasilate], the TEAD-luciferase reporter activity (compound concentration: 2 uM) was inactive: -0.997.
With `O=C1NCC2(CCN(CCc3ccccc3)CC2)O1` [Fenspiride HCl], the TEAD-luciferase reporter activity by setting is: (compound concentration: 200 nM) inactive: -0.455; (compound concentration: 10 uM) inactive: -0.689.
Consider `NCCCC(O)(P(=O)(O)O)P(=O)(O)O` [alendronate sodium iv], for which the TEAD-luciferase reporter activity (compound concentration: 2 uM) was inactive: -0.449.
For the molecule `NCCCC(O)(P(=O)(O)O)P(=O)(O)O` [alendronate sodium iv, Teijin], the TEAD-luciferase reporter activity is, setting by setting: (compound concentration: 200 nM) active: 9.52; (compound concentration: 10 uM) inactive: 2.55.
As for `CCN1CCCC(OC(=O)C(c2ccccc2)c2ccccc2)C1` (stereo unspecified), the TEAD-luciferase reporter activity is inactive: -2.26 (compound concentration: 200 nM), inactive: 0.56 (compound concentration: 2 uM) and inactive: 0.218 (compound concentration: 10 uM).
For `Cc1cc2ncc(C(=O)NC3CCCCC3)cn2n1`, the TEAD-luciferase reporter activity is inactive: -2.73 (compound concentration: 200 nM) and inactive: -0.0995 (compound concentration: 10 uM).
Consider `CO/N=C1\C[C@@H](C(=O)NC[C@@H](O)c2ccccc2)N(C(=O)c2ccc(-c3ccccc3C)cc2)C1`, for which the TEAD-luciferase reporter activity (compound concentration: 200 nM) was inactive: 0.182, the TEAD-luciferase reporter activity (compound concentration: 2 uM) is inactive: -1.28 and the TEAD-luciferase reporter activity (compound concentration: 10 uM) is inactive: 1.61.
In the same order, the values of `OC[C@H]1O[C@@H](n2cnc3c(N[C@H]4CCC[C@@H]4O)ncnc32)[C@@H](O)[C@@H]1O` are inactive: -0.0963, inactive: -1.2 and active: 5.06.
In the same order, the values of `COc1cc([C@@H]2c3cc4c(cc3[C@@H](O[C@@H]3O[C@@H]5CO[C@@H](c6cccs6)O[C@H]5[C@H](O)[C@H]3O)[C@H]3COC(=O)[C@H]23)OCO4)cc(OC)c1O` [teniposide] are inactive: -1.01, inactive: -1.19 and inactive: -0.599.
For `CCNC(=O)Nc1cccc([C@@H](Cc2ccncc2)c2ccc(OC)c(OC3CCCC3)c2)c1`, the TEAD-luciferase reporter activity was inactive: -1.41 (compound concentration: 200 nM); inactive: -1.52 and inactive: -2.21 (compound concentration: 2 uM); inactive: 0.995 (compound concentration: 10 uM).
Regarding `COc1ccc(OC(=O)N(CC(=O)O)Cc2ccc(OCCc3nc(-c4ccccc4)oc3C)cc2)cc1` [Muraglitazar], the TEAD-luciferase reporter activity reads like this: (compound concentration: 200 nM) inactive: -1.03; (compound concentration: 2 uM) inactive: -0.949; (compound concentration: 10 uM) inactive: 2.15.
Take `CC(C)CN(C[C@@H](O)[C@H](Cc1ccccc1)NC(=O)O[C@H]1CCOC1)S(=O)(=O)c1ccc(N)cc1` [Amprenavir]: the TEAD-luciferase reporter activity reads like this: (compound concentration: 200 nM) inactive: -0.614; (compound concentration: 10 uM) inactive: 2.36.
As for `CC(C)CN(C[C@@H](O)[C@H](Cc1ccccc1)NC(=O)O[C@H]1CCOC1)S(=O)(=O)c1ccc(N)cc1` [amprenavir], for the setting “compound concentration: 2 uM”, the TEAD-luciferase reporter activity is inactive: 0.409.
As for `Cn1c(=O)c2c(ncn2CCN2CCC(C(=O)c3ccc(F)cc3)CC2)n(C)c1=O`, the TEAD-luciferase reporter activity was inactive: -1.61 (compound concentration: 200 nM), inactive: -0.0733 (compound concentration: 2 uM) and inactive: 0.856 (compound concentration: 10 uM).
Consider `O=C(c1ccc(Cl)cc1)N1CC2(CCN(C3CCCCC3)CC2)Cc2ccccc21`, for which the TEAD-luciferase reporter activity runs as follows: (compound concentration: 200 nM) inactive: 4.47; (compound concentration: 10 uM) inactive: 3.51.
As to `CCCCCCCCN=c1ccn(CCCCCCCC)cc1`, the TEAD-luciferase reporter activity was inactive: -2.02 (compound concentration: 200 nM), inactive: -0.996 (compound concentration: 2 uM) and inactive: -1.84 (compound concentration: 10 uM).
